Results as given in the supplement of paper PMC8728848.
Some of the results follow.

Assays:
Test in all cases: glycan array binding signal (z-score within array); higher = stronger binding
Details in all cases: glycan notation: IUPAC condensed, linker removed
[1] = molecular target: Neu5Ac(a2-6)Gal(b1-4)GlcNAc(b1-2)Man(a1-3)[Man(a1-6)]Man(b1-4)GlcNAc(b1-4)GlcNAc
Method in brief: (§1)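 Arrays were curated from the Consortium for Functional Glycomics database, 3228 in total, and kept only where the protein sequence was available. Binding is expressed as a within-array Z-score. This score was averaged across arrays of the same protein sequence at different concentrations or buffers and across linkers, and negative values can be read as non-binding.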

[2] = molecular target: Neu5Ac(a2-6)Gal(b1-4)GlcNAc(b1-2)Man(a1-3)[Neu5Ac(a2-3)Gal(b1-4)GlcNAc(b1-2)Man(a1-6)]Man(b1-4)GlcNAc(b1-4)GlcNAc
Method in brief: as §1

[3] = molecular target: Neu5Ac(a2-6)Gal(b1-4)GlcNAc(b1-2)Man(a1-3)[Neu5Ac(a2-6)Gal(b1-4)GlcNAc(b1-2)Man(a1-6)]Man(b1-4)GlcNAc(b1-4)GlcNAc
Method in brief: as §1

[4] = molecular target: Neu5Ac(a2-6)Gal(b1-4)GlcNAc(b1-2)Man(a1-3)[Neu5Ac(a2-6)Gal(b1-4)GlcNAc(b1-2)Man(a1-6)]Man(b1-4)GlcNAc(b1-4)[Fuc(a1-6)]GlcNAc
Method in brief: as §1

[5] = molecular target: Neu5Ac(a2-6)Gal(b1-4)GlcNAc(b1-2)Man(a1-6)Man(b1-4)GlcNAc(b1-4)GlcNAc
Method in brief: as §1

[6] = molecular target: Neu5Ac(a2-6)Gal(b1-4)GlcNAc(b1-2)Man(a1-6)[Gal(b1-4)GlcNAc(b1-2)Man(a1-3)]Man(b1-4)GlcNAc(b1-4)GlcNAc
Method in brief: as §1

[7] = molecular target: Neu5Ac(a2-6)Gal(b1-4)GlcNAc(b1-2)Man(a1-6)[GlcNAc(b1-2)Man(a1-3)]Man(b1-4)GlcNAc(b1-4)GlcNAc
Method in brief: as §1

[8] = molecular target: Neu5Ac(a2-6)Gal(b1-4)GlcNAc(b1-2)Man(a1-6)[Man(a1-3)]Man(b1-4)GlcNAc(b1-4)GlcNAc
Method in brief: as §1

[9] = molecular target: Neu5Ac(a2-6)Gal(b1-4)GlcNAc(b1-2)[Neu5Ac(a2-6)Gal(b1-4)GlcNAc(b1-4)]Man(a1-3)[GlcNAc(b1-4)][Neu5Ac(a2-6)Gal(b1-4)GlcNAc(b1-2)[Neu5Ac(a2-6)Gal(b1-4)GlcNAc(b1-6)]Man(a1-6)]Man(b1-4)GlcNAc(b1-4)GlcNAc
Method in brief: as §1

[10] = molecular target: Neu5Ac(a2-6)Gal(b1-4)GlcNAc(b1-2)[Neu5Ac(a2-6)Gal(b1-4)GlcNAc(b1-4)]Man(a1-3)[GlcNAc(b1-4)][Neu5Ac(a2-6)Gal(b1-4)GlcNAc(b1-4)Man(a1-6)]Man(b1-4)GlcNAc(b1-4)GlcNAc
Method in brief: as §1

[11] = molecular target: Neu5Ac(a2-6)Gal(b1-4)GlcNAc(b1-2)[Neu5Ac(a2-6)Gal(b1-4)GlcNAc(b1-6)]Man(a1-6)[Neu5Ac(a2-6)Gal(b1-4)GlcNAc(b1-2)Man(a1-3)][GlcNAc(b1-4)]Man(b1-4)GlcNAc(b1-4)GlcNAc
Method in brief: as §1

[12] = molecular target: Neu5Ac(a2-6)Gal(b1-4)GlcNAc(b1-3)Gal(b1-3)GlcNAc
Method in brief: as §1

[13] = molecular target: Neu5Ac(a2-6)Gal(b1-4)GlcNAc(b1-3)Gal(b1-4)GlcNAc
Method in brief: as §1

[14] = molecular target: Neu5Ac(a2-6)Gal(b1-4)GlcNAc(b1-3)Gal(b1-4)GlcNAc(b1-2)Man(a1-3)[Neu5Ac(a2-6)Gal(b1-4)GlcNAc(b1-3)Gal(b1-4)GlcNAc(b1-2)Man(a1-6)]GalNAc
Method in brief: as §1

[15] = molecular target: Neu5Ac(a2-6)Gal(b1-4)GlcNAc(b1-3)Gal(b1-4)GlcNAc(b1-3)Gal(b1-4)GlcNAc
Method in brief: as §1

[16] = molecular target: Neu5Ac(a2-6)Gal(b1-4)GlcNAc(b1-3)Gal(b1-4)GlcNAc(b1-3)Gal(b1-4)GlcNAc(b1-2)Man(a1-3)[Neu5Ac(a2-6)Gal(b1-4)GlcNAc(b1-3)Gal(b1-4)GlcNAc(b1-3)Gal(b1-4)GlcNAc(b1-2)Man(a1-6)]GalNAc
Method in brief: as §1

[17] = molecular target: Neu5Ac(a2-6)Gal(b1-4)GlcNAc(b1-3)Gal(b1-4)GlcNAc(b1-3)GalNAc
Method in brief: as §1

[18] = molecular target: Neu5Ac(a2-6)Gal(b1-4)GlcNAc(b1-3)Gal(b1-4)GlcNAc(b1-3)[Neu5Ac(a2-6)Gal(b1-4)GlcNAc(b1-3)Gal(b1-4)GlcNAc(b1-6)]GalNAc
Method in brief: as §1

[19] = molecular target: Neu5Ac(a2-6)Gal(b1-4)GlcNAc(b1-3)Gal(b1-4)GlcNAc(b1-6)[Gal(b1-3)]GalNAc
Method in brief: as §1

[20] = molecular target: Neu5Ac(a2-6)Gal(b1-4)GlcNAc(b1-3)Gal(b1-4)[Fuc(a1-3)]GlcNAc(b1-3)Gal(b1-4)[Fuc(a1-3)]GlcNAc
Method in brief: as §1

[21] = molecular target: Neu5Ac(a2-6)Gal(b1-4)GlcNAc(b1-3)GalNAc
Method in brief: as §1

[22] = molecular target: Neu5Ac(a2-6)Gal(b1-4)GlcNAc(b1-3)[Neu5Ac(a2-6)Gal(b1-4)GlcNAc(b1-6)]GalNAc
Method in brief: as §1

[23] = molecular target: Neu5Ac(a2-6)Gal(b1-4)GlcNAc(b1-6)GalNAc
Method in brief: as §1

[24] = molecular target: Neu5Ac(a2-6)Gal(b1-4)GlcNAc(b1-6)[Gal(b1-3)GlcNAc(b1-3)]Gal(b1-4)Glc
Method in brief: as §1

[25] = molecular target: Neu5Ac(a2-6)Gal(b1-4)GlcNAc(b1-6)[Gal(b1-3)]GalNAc
Method in brief: as §1

[26] = molecular target: Neu5Ac(a2-6)Gal(b1-4)GlcNAc6S
Method in brief: as §1

[27] = molecular target: Neu5Ac(a2-6)GalNAc
Method in brief: as §1

[28] = molecular target: Neu5Ac(a2-6)GalNAc(b1-4)GlcNAc
Method in brief: as §1

[29] = molecular target: Neu5Ac(a2-6)GalNAc(b1-4)GlcNAc6S
Method in brief: as §1

[30] = molecular target: Neu5Ac(a2-6)GlcNAc(b1-4)GlcNAc
Method in brief: as §1

[31] = molecular target: Neu5Ac(a2-6)GlcNAc(b1-4)GlcNAc(b1-4)GlcNAc
Method in brief: as §1

B1: Mincle (Bos taurus) (protein)
chain: MNSSTSPASQTERRCFSFQLFSWAIAGTSILLLSACFITRCVVTYSIFQLCDEKKFQPPGDSMELSCYNDGSGSVKNCCPLKWFHFQSSCYLFSPDTMSWRASLKNCSSMGAHLVVINTQEEQEFLYYTKPRKKEFYIGLTDQVTEGQWQWVDGTPFTKSLSFWDAGEPNNLVIVEDCATIRDSSNPRQNWNDVPCFFNMFRVCEMPERKI
- glycan array binding signal (z-score) [1]: 0.572
- glycan array binding signal (z-score) [2]: -0.408
- glycan array binding signal (z-score) [3]: 0.087
- glycan array binding signal (z-score) [4]: 0.527
- glycan array binding signal (z-score) [5]: 0.271
- glycan array binding signal (z-score) [6]: -1
- glycan array binding signal (z-score) [7]: -0.23
- glycan array binding signal (z-score) [8]: 0.239
- glycan array binding signal (z-score) [9]: -0.516
- glycan array binding signal (z-score) [10]: -0.396
- glycan array binding signal (z-score) [11]: -1.13
- glycan array binding signal (z-score) [12]: 1.22
- glycan array binding signal (z-score) [13]: -0.895
- glycan array binding signal (z-score) [14]: 0.482
- glycan array binding signal (z-score) [15]: -0.488
- glycan array binding signal (z-score) [16]: 2.31
- glycan array binding signal (z-score) [17]: -0.76
- glycan array binding signal (z-score) [18]: 1.75
- glycan array binding signal (z-score) [19]: -0.068
- glycan array binding signal (z-score) [20]: 0.234
- glycan array binding signal (z-score) [21]: -0.436
- glycan array binding signal (z-score) [22]: 0.166
- glycan array binding signal (z-score) [23]: 0.439
- glycan array binding signal (z-score) [24]: -0.04
- glycan array binding signal (z-score) [25]: -0.016
- glycan array binding signal (z-score) [26]: -0.218
- glycan array binding signal (z-score) [27]: -0.507
- glycan array binding signal (z-score) [28]: -0.744
- glycan array binding signal (z-score) [29]: -0.538
- glycan array binding signal (z-score) [30]: 0.082
- glycan array binding signal (z-score) [31]: -0.07
